Laboratory results published in PubChem BioAssay.
The list shows a part of the results. Potency and affinity values are given separately. Entries without a call are filed as inconclusive in the source.

Columns and labels:
[1] = Drosophila SCA1 whole organism dose response for polyglutamine toxicity reduction (AID 1595); settings: Drosophila SCA1 polyglutamine model, at 1 µM, stronger effect = higher value
PubChem AID 1597 = settings: Drosophila SCA1 polyglutamine model, at 1 µM, stronger effect = higher value

| SMILES | suppression of toxicity [1] | suppression of toxicity (PubChem AID 1597) |
| --- | --- | --- |
| C[C@](N)(Cc1ccc(O)c(O)c1)C(=O)O | 7.14 | 10 |
| Fc1ccc(C(c2ccc(F)cc2)N2CCN(C/C=C/c3ccccc3)CC2)cc1 | 8.57 | 12.1 |
| CN[C@H](CC(=O)O)C(=O)O | 0 | 17.9 |
| CCC(=O)c1c(O)cc(O)cc1O | 4.29 | 0.715 |
| C#C[C@]1(O)CCC2C3CCC4=CC(=O)CC[C@@H]4C3CC[C@@]21C (stereo not given in full) | 10 | 4.29 |
| CCCN(CCC)S(=O)(=O)c1ccc(C(=O)O)cc1 | 4.29 | 8.57 |
| O=c1cc(-c2ccc(O)cc2)oc2cc(O)cc(O)c12 | 1.43 | 0.715 |
| COc1ccc2c(c1OC)C(=O)O[C@H]2[C@@H]1c2ccccc2CCN1C | 8.57 | 12.1 |
| CC1=C(/C=C/C(C)=C/C=C/C(C)=C/C(=O)O)C(C)(C)CCC1 | 0 | 1.43 |
| COc1ccc2c(c1)c(CC(=O)O)c(C)n2C(=O)c1ccc(Cl)cc1 | 1.43 | 4.29 |
| NCCCS(=O)(=O)O | 4.29 | 3.57 |
| CCOc1ccc(NC(C)=O)cc1 | 0 | 1.43 |
| CO/N=C(/C(=O)NC1C(=O)N2C(C(=O)O)=C(COC(N)=O)CSC12)c1ccco1 (stereo not given) | 1.43 | 3.58 |
| O=C(OCC(O)CO)c1ccccc1Nc1ccnc2cc(Cl)ccc12 (stereo not given) | 1.43 | 4.29 |
| C[C@]12CCC3c4ccc(O)cc4CCC3C1CC[C@@H]2O (stereo not given in full) | 4.29 | 6.43 |
| CC(=O)OCC1=C(C(=O)O)N2C(=O)[C@@H](NC(=O)Cc3cccs3)[C@H]2SC1 | 5.71 | 7.14 |
| N.N.O=C(O)C1(C(=O)O)CCC1.[Pt] | 0 | 0.715 |
| CC1CC2C3CCC4=CC(=O)C=CC4(C)[C@@]3(F)C(O)CC2(C)[C@@]1(O)C(=O)CO (stereo not given in full) | 2.86 | 11.4 |

Whole records, quoted from the list. Values in the order: suppression of toxicity [1]	suppression of toxicity (PubChem AID 1597)
CCCN(CCC)S(=O)(=O)c1ccc(C(=O)O)cc1 in the list: 4.29	8.57
CC1CC2C3CCC4=CC(=O)C=CC4(C)[C@@]3(F)C(O)CC2(C)[C@@]1(O)C(=O)CO (stereo not given in full) in the list: 2.86	11.4

Next part

| SMILES | suppression of toxicity [1] | suppression of toxicity (PubChem AID 1597) |
| --- | --- | --- |
| NCCCCC(N)C(=O)NC(Cc1ccc(O)cc1)C(=O)NC(CCCCN)C(=O)O (stereo not given) | 0 | 7.21 |
| CN(C)CCCN1c2ccccc2CCc2ccc(Cl)cc21 | 1.43 | 4.29 |
| CC(=C(CCOP(=O)(O)O)SC(=O)c1ccccc1)N(C=O)Cc1cnc(C)nc1N | 7.14 | 10 |
| CC(C)NCC(O)COc1cccc2ccccc12 (stereo not given) | 0 | 3.58 |
| CCN(CC)CCNc1ccc(CO)c2sc3ccccc3c(=O)c12 | 0 | 12.9 |
| CN1CCN(C(c2ccccc2)c2ccc(Cl)cc2)CC1 (stereo not given) | 2.86 | 12.9 |
| Nc1ncnc2c1ncn2C1OC(CO)[C@H](O)C1O (stereo not given in full) | 0 | 1.43 |
| COc1c2ccoc2cc2oc(=O)ccc12 | 2.86 | 4.29 |
| Cc1cc(NS(=O)(=O)c2ccc(N)cc2)no1 | 4.29 | 8.57 |
| CCN(CC)CCNC(=O)c1cc(Cl)c(N)cc1OC | 1.43 | 2.15 |
| COc1ccc2[nH]cc(CCNC(C)=O)c2c1 | 2.85 | 4.29 |
| CN(C)CCC=C1c2ccccc2C=Cc2ccccc21 | 15.7 | 20.7 |
| CC(C)(C)NCC(O)COc1cccc2c1C[C@H](O)[C@H](O)C2 (stereo not given in full) | 4.29 | 7.86 |
| O=C(O)c1cn(C2CC2)c2cc(N3CCNCC3)c(F)cc2c1=O | 2.86 | 2.86 |
| CC(C)=CCC/C(C)=C/CO | 2.85 | 4.29 |
| COc1cc(C)c2c(=O)cc(-c3ccccc3)oc2c1 | 2.86 | 5.71 |
| CC(=O)N[C@@H](CCC(=O)O)C(=O)O | 1.43 | 5.71 |
